Laboratory results published in the supplement of paper PMC8728848.
The list shows a part of the results.

Key:
Assay in all cases: glycan array binding signal (z-score within array); higher = stronger binding
Settings in all cases: glycan notation: IUPAC condensed, linker removed
[1] = target: Gal3S(b1-3)[Fuc(a1-4)]GlcNAc
In short: (§1)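 Columns mapping to the same glycan were averaged after glycan names were converted to IUPAC-condensed notation. The data come from 3228 arrays in the Consortium for Functional Glycomics database, limited to those with an available protein sequence. Binding is reported as a within-array Z-score averaged across arrays of one protein sequence and across linkers.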

Gal3S(b1-4)Glc = target: Gal3S(b1-4)Glc
In short: as §1

Gal3S(b1-4)Glc6S = target: Gal3S(b1-4)Glc6S
In short: as §1

Gal3S(b1-4)GlcNAc = target: Gal3S(b1-4)GlcNAc
In short: as §1

Gal3S(b1-4)GlcNAc6S = target: Gal3S(b1-4)GlcNAc6S
In short: as §1

[2] = target: Gal3S(b1-4)[Fuc(a1-3)]Glc
In short: as §1

[3] = target: Gal3S(b1-4)[Fuc(a1-3)]Glc6S
In short: as §1

Gal3S4S(b1-4)GlcNAc = target: Gal3S4S(b1-4)GlcNAc
In short: as §1

Gal3S6S(b1-4)GlcNAc = target: Gal3S6S(b1-4)GlcNAc
In short: as §1

Gal3S6S(b1-4)GlcNAc6S = target: Gal3S6S(b1-4)GlcNAc6S
In short: as §1

Gal4S(b1-4)GlcNAc = target: Gal4S(b1-4)GlcNAc
In short: as §1

Gal4S6S(b1-4)GlcNAc = target: Gal4S6S(b1-4)GlcNAc
In short: as §1

Gal6S(b1-3)GlcNAc = target: Gal6S(b1-3)GlcNAc
In short: as §1

Gal6S(b1-3)GlcNAc6S = target: Gal6S(b1-3)GlcNAc6S
In short: as §1

Gal6S(b1-4)Glc = target: Gal6S(b1-4)Glc
In short: as §1

Gal6S(b1-4)Glc6S = target: Gal6S(b1-4)Glc6S
In short: as §1

Gal6S(b1-4)GlcNAc = target: Gal6S(b1-4)GlcNAc
In short: as §1

Gal6S(b1-4)GlcNAc6S = target: Gal6S(b1-4)GlcNAc6S
In short: as §1

GalNAc(a1-3)Gal = target: GalNAc(a1-3)Gal
In short: as §1

GalNAc(a1-3)GalNAc = target: GalNAc(a1-3)GalNAc
In short: as §1

[4] = target: GalNAc(a1-3)GalNAc(a1-3)Gal(a1-4)Gal(b1-4)GlcNAc
In short: as §1

[5] = target: GalNAc(a1-3)GalNAc(b1-3)Gal(a1-4)Gal(b1-4)Glc
In short: as §1

GalNAc(b1-3)Gal = target: GalNAc(b1-3)Gal
In short: as §1

[6] = target: GalNAc(b1-3)Gal(a1-4)Gal(b1-4)GlcNAc
In short: as §1

[7] = target: GalNAc(b1-3)Gal(a1-4)Gal(b1-4)GlcNAc(b1-3)Gal(b1-4)Glc
In short: as §1

[8] = target: GalNAc(b1-3)Gal(a1-6)Gal(b1-4)Glc
In short: as §1

GalNAc(b1-3)GalNAc = target: GalNAc(b1-3)GalNAc
In short: as §1

GalNAc(b1-4)Gal(b1-4)Glc = target: GalNAc(b1-4)Gal(b1-4)Glc
In short: as §1

GalNAc(b1-4)GlcNAc = target: GalNAc(b1-4)GlcNAc
In short: as §1

[9] = target: GalNAc(b1-4)GlcNAc(b1-2)Man(a1-3)[GalNAc(b1-4)GlcNAc(b1-2)Man(a1-6)]Man(b1-4)GlcNAc(b1-4)GlcNAc
In short: as §1

B1: RetS (Pseudomonas aeruginosa), Q9HUV7 (protein)
chain: MVRLRIAIGLLVSFLLLLLGPMSPAVADDAGVSSVPLQTTATTPSANQNWRLLRDESAQLRIADVLQRKEQFRPLAKRSFIFPASPQAVWLQVQLPAQKVPSWLWIFAPRVQYLDYYLVQDGQLVRDQHTGESRPFQERPLPSRSYLFSLPVDGKPMTLYVRMTSNHPLMAWFDQIDEAGLVGLEKPAYAFGMLLGGMLLLLMYNLIRFAYSRSASSLWLAAVHAALAVCAAANLGLVAFWLPGLKFNQSLTADLGALGAAVSLLWFACSFFRGTAESRLNRLLQGEALLILAVGAIIAFTQQLWFSWLIYLLVILSSLSVPLIAAWHWYRGYQPARLIVAGMIVFNAGFMVFLPVLFGTKQLDPGWLVLGVFSFATLAGLVLSVSLTERQRLIQQLNLQQRTSEAAHTAELQTKAEFLAKISHEIRTPMNGVLGMTELLLGTPLSAKQRDYVQTIHSAGNELLTLINEILDISKLESGQIELDEVQFDLNALIEDCLDIFRVKAEQQRIELISFTQPQVPRVIGGDPTRLRQVVLSLLDNAFKQTEEGEILLVVALDDQGETPRLRIAVQDSGHPFDAKEREALLTAELHSGDFLSASKLGSHLGLIIARQLVRLMGGEFGIQSGSSQGTTLSLTLPLDPQQLENPTADLDGPLQGARLLVVDDNETCRKVLVQQCSGWGLNVSAVSSGKEALAQLRTKAHLREYFDVVLLDQDMPGMTGMQLAAKIKEDPNLNHDILLIMLTGISNAPSKIIARNAGIKRILAKPVAGYTLKATLADELAQRGVSGVTNYLQPAKEAQAPSLPSDFRILVAEDNSISTKVIRGMLNKLNLQPDTASNGQEALSAMKATQYDLVLMDCEMPVLDGFSATEQLRAWEAHEQRPHTPVVALTAHILSEHKERARLVGMDGHMAKPVELSQLRELIAYWVGERDRRRQGDALPS
[1]
  glycan array binding signal (z-score): 0.75
Gal3S(b1-4)Glc
  glycan array binding signal (z-score): -0.308
Gal3S(b1-4)Glc6S
  glycan array binding signal (z-score): 0.403
Gal3S(b1-4)GlcNAc
  glycan array binding signal (z-score): 1.15
Gal3S(b1-4)GlcNAc6S
  glycan array binding signal (z-score): -0.988
[2]
  glycan array binding signal (z-score): -0.57
[3]
  glycan array binding signal (z-score): 0.045
Gal3S4S(b1-4)GlcNAc
  glycan array binding signal (z-score): -0.457
Gal3S6S(b1-4)GlcNAc
  glycan array binding signal (z-score): -0.562
Gal3S6S(b1-4)GlcNAc6S
  glycan array binding signal (z-score): 0.84
Gal4S(b1-4)GlcNAc
  glycan array binding signal (z-score): -0.699
Gal4S6S(b1-4)GlcNAc
  glycan array binding signal (z-score): 0.028
Gal6S(b1-3)GlcNAc
  glycan array binding signal (z-score): 0.626
Gal6S(b1-3)GlcNAc6S
  glycan array binding signal (z-score): -1.69
Gal6S(b1-4)Glc
  glycan array binding signal (z-score): -0.084
Gal6S(b1-4)Glc6S
  glycan array binding signal (z-score): -0.756
Gal6S(b1-4)GlcNAc
  glycan array binding signal (z-score): -0.462
Gal6S(b1-4)GlcNAc6S
  glycan array binding signal (z-score): 0.341
GalNAc(a1-3)Gal
  glycan array binding signal (z-score): -0.593
GalNAc(a1-3)GalNAc
  glycan array binding signal (z-score): -0.917
[4]
  glycan array binding signal (z-score): -0.424
[5]
  glycan array binding signal (z-score): 0.419
GalNAc(b1-3)Gal
  glycan array binding signal (z-score): -0.593
[6]
  glycan array binding signal (z-score): 1.47
[7]
  glycan array binding signal (z-score): 0.224
[8]
  glycan array binding signal (z-score): -0.305
GalNAc(b1-3)GalNAc
  glycan array binding signal (z-score): 0.75
GalNAc(b1-4)Gal(b1-4)Glc
  glycan array binding signal (z-score): 1.21
GalNAc(b1-4)GlcNAc
  glycan array binding signal (z-score): 0.31
[9]
  glycan array binding signal (z-score): -0.726
